Test results as given in PubChem BioAssay AID1671190 (National Center for Advancing Translational Sciences (NCATS), 2021).
Hit rate of the full screen: of about 580,000 compounds, about 6,100 (1.1%) were called active. Inconclusive results, whose numbers are uncertain, are shown with a selection of clear calls. The call rests on the fitted dose curve; in most records, active means well fitted inhibition curve with a large enough effect; inconclusive means small, poorly fitted or top-dose-only effect, or another doubt; inactive means no such curve, though single readings can be large or run the other way. Potencies beside an inconclusive call are fits to weak or partial responses and may not hold up.
On the % scale 0 is the no-effect control and ±100 the full control effect; potency means the concentration at half of the fitted maximal effect.

Chains of the proteins cited; added tags and fusions are not shown.
UniProt P18054, whole entry, looked up: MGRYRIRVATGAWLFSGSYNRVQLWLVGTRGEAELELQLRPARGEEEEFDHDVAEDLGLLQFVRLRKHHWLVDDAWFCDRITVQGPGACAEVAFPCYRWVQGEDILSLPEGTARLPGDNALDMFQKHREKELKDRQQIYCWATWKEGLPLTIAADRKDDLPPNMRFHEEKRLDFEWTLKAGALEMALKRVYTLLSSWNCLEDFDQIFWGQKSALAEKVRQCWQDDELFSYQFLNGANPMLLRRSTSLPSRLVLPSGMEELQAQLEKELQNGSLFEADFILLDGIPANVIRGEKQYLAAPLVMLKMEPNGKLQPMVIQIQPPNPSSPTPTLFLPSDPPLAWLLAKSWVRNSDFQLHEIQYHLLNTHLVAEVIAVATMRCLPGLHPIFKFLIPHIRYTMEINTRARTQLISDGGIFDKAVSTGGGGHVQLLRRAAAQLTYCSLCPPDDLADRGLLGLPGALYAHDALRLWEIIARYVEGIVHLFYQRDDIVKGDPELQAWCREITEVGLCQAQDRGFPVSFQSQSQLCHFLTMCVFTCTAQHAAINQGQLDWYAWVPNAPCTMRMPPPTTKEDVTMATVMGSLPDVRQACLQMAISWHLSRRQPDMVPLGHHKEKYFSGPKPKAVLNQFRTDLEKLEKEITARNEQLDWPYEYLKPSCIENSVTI

These compounds were tested against Polyunsaturated fatty acid lipoxygenase ALOX12 (Homo sapiens) (UniProt P18054) (assay: Primary qHTS assay for inhibitors of human arachidonate 12S-lipoxygenase (ALOX12): Round 2). Details: purified 12hLO, xylenol orange hydroperoxide absorbance; activity change, negative = inhibition: at 108 µM (top of the series) unless noted.
In short: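 Hydroperoxide product was detected by ferrous iron/xylenol orange as the 573 to 405 nm absorbance ratio. Arachidonic acid at 40 uM (final) was turned over for 30 min at room temperature by 150 nM human 12hLO, pH 7.0 Hepes buffer, after 15 min compound preincubation.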
With CCC(CNC(=O)c1ccc2c(c1)NC(=O)CS2)c1ccccc1 (stereo unspecified) the Potency was inconclusive: 50.1 µM [inhibitor, partial curve, poor fit]. C=C1CCC[C@]2(C)C[C@H]3OC(=O)C(CNCCN(CC)CC)[C@H]3CC12 (stereo partly specified) was tested, and the Potency was inconclusive: 25.1 µM [inhibitor, partial curve, poor fit]. O=C(c1ccn[nH]1)N1CCC(c2noc(COc3ccc(F)cc3)n2)C1 (stereo unspecified) was tested, and the Potency was “inactive”. COc1ccc(OCC(=O)N(Cc2sccc2C)C2CCS(=O)(=O)C2)cc1 (stereo unspecified) was tested, and the Potency was “inactive”. In the case of O=C(CCc1ncc(-c2ccc(F)cc2F)o1)Nc1ccc(Cl)cc1Cl, the Potency is reported as inconclusive: 39.8 µM [inhibitor, partial curve, poor fit]. COc1ccc(C(CCNCc2ccccc2)c2ccc(F)cc2)cc1 (stereo unspecified) was tested, and the Potency was “inactive”. For O=C(NCc1ccccc1Cl)c1c2c(nc3ccccc13)C(=O)N(C1CCCCC1)C2, the Potency was inconclusive: 100 µM [inhibitor, partial curve, poor fit]. CS(=O)(=O)N1CCc2cc(-c3csc(NC(=O)C(c4ccccc4)c4ccccc4)n3)ccc21 was tested, and the Potency was inconclusive: 31.6 µM [inhibitor, partial curve, poor fit]. N#Cc1ccc(OCCCN2CCC(C(O)(c3ccccc3)c3ccccc3)CC2)cc1 was tested, and the Potency was inconclusive: 63.1 µM [inhibitor, partial curve, poor fit]. In the case of CCn1c(=O)c(C(=O)Nc2ccccc2S(N)(=O)=O)c(O)c2ccccc21, the Potency is reported as “inactive”. For COc1cccc2c1C(CO)N1C(C#N)C3CC(C(=O)O)C(C1C2)N3C (stereo unspecified), the Potency was “inactive”. With CCOC(=O)c1sc2nc(CC(=O)OC)nc(NCC(=O)OC)c2c1C the Potency was “inactive”. CCCNc1ncnc2sc(C)c(C)c12 was tested, and the Potency was inconclusive: 50.1 µM [inhibitor, partial curve, poor fit]. In the case of COc1cc(/C=C(/C#N)c2ccccn2)cc(OC)c1OC(F)F, the Potency is reported as inconclusive: 126 µM [inhibitor, single point]. With CC(C)NC(=O)N[C@H]1CC[C@H](CC(=O)NCc2ccc(Oc3ccccc3)cc2)O[C@@H]1CO the Potency was inconclusive: 79.4 µM [inhibitor, single point]. O=C1NC[C@@H](CCCCN2C[C@H](Cc3ccccc3)N(CCC3CCCCC3)C(=O)C2=O)N(CCc2ccccc2)C1=O was tested, and the Potency was inconclusive: 7.94 µM [inhibitor, partial curve, poor fit]. For O=C(COC(=O)/C=C/c1ccccc1)Nc1cc(C(F)(F)F)ccc1N1CCOCC1, the Potency was “inactive”. With CCOc1ccc(-c2ccc(SC)nn2)cc1 the Potency was “inactive”. Nc1cc2nn(-c3ccccc3)nc2cc1Cl was tested, and the Potency was active: 5.62 µM. For Cc1ccc(C)c2sc(NC(=O)C3CC3)nc12, the Potency was “inactive”. For COC(=O)c1ccccc1NC(=O)C1CCCN(S(C)(=O)=O)C1 (stereo unspecified), the Potency was “inactive”. With CC(=O)Nc1ccc(/C=C2\CCc3ccccc3C2=O)cc1 the activity change, negative = inhibition was inconclusive: -39.8% [inhibitor]. O=C(CCCOC(=O)c1ccc([N+](=O)[O-])cc1)c1ccc(F)cc1 was tested, and the Potency was “inactive”. In the case of Cc1cc(NC(=S)N(Cc2cccc(Br)c2)CC2CCC(C(=O)O)CC2)ccc1Cl (stereo unspecified), the Potency is reported as inconclusive: 35.5 µM [inhibitor, partial curve]. In the case of Cc1ccc(C2C(C#N)=C(N)Oc3c2ccc2ccccc32)cc1 (stereo unspecified), the Potency is reported as inconclusive: 7.94 µM [inhibitor, partial curve, poor fit]. With Cc1ccc(N(C(=O)Cc2c[nH]c3ccccc23)C(C(=O)NC2CCCCC2)c2ccco2)cc1 (stereo unspecified) the Potency was “inactive”. For COc1cccc(C2/C(=C(\O)c3ccc4c(c3)OCCO4)C(=O)C(=O)N2CCN(C)C)c1 (stereo unspecified), the Potency was inconclusive: 31.6 µM [inhibitor, single point]. For c1ccc2c(c1)oc1c(Nc3ccc4c(c3)OCCO4)ncnc12, the Potency was inconclusive: 7.08 µM [inhibitor, full curve]. With Cc1cccc(CCn2c(=O)c3ccccc3n(CC(=O)Nc3ccccc3F)c2=O)c1 the Potency was inconclusive: 0.355 µM [inhibitor, full curve, poor fit]. COc1cc(/C=N/N=C(\N)c2nonc2N)cc(OC)c1OC was tested, and the Potency was inconclusive: 3.55 µM [inhibitor, full curve, poor fit]. With Cn1nc(C(=O)Nc2cc(Cl)cc(Cl)c2)c2ccccc2c1=O the Potency was inconclusive: 39.8 µM [inhibitor, single point]. With CCn1c2ccccc2c2nc3cc(OC)c(OC)cc3nc21 the Potency was inconclusive: 7.94 µM [inhibitor, full curve, poor fit]. With O=C(CC1C(=O)NCCN1C/C=C/c1ccccc1)NCCc1cnccn1 (stereo unspecified) the Potency was inconclusive: 112 µM [inhibitor, partial curve, poor fit]. With COc1ccc(C2C(CN3CCOCC3)C(=O)N2c2ccccc2)cc1 (stereo unspecified) the Potency was “inactive”. In the case of O=c1cc(C=NNc2ccccc2)[nH]c(=O)[nH]1, the Potency is reported as inconclusive: 25.1 µM [inhibitor, partial curve]. In the case of O=C(Nc1ccc(C(=O)O)cc1)/C(=C\c1ccccc1)NC(=O)c1ccccc1, the Potency is reported as inconclusive: 79.4 µM [inhibitor, single point]. With O=C(CSc1ccc2c(c1)OCCO2)NC(c1ccccc1)c1cccs1 (stereo unspecified) the Potency was inconclusive: 39.8 µM [inhibitor, partial curve, poor fit]. For Cc1ccc(C)c(N2CCN(CCCNC(=O)c3cnn(-c4ccccc4)c3C3CCN(C(=O)OC(C)(C)C)CC3)CC2)c1, the Potency was inconclusive: 79.4 µM [inhibitor, partial curve, poor fit]. In the case of Cc1ccc(NC(=O)CCC(=O)OCC(=O)c2ccc(Oc3ccc([N+](=O)[O-])cc3)cc2)cc1C, the Potency is reported as inconclusive: 0.794 µM [inhibitor, full curve, poor fit]. For O=C(c1cccs1)N1N=C(c2ccc(O)cc2)CC1c1ccccc1 (stereo unspecified), the Potency was inconclusive: 50.1 µM [inhibitor, partial curve, poor fit]. For O=C(O)CCc1nn2c3ccccc3n(CC(=O)O)c2nc1=O, the Potency was inconclusive: 89.1 µM [inhibitor, partial curve, poor fit]. With CCOc1ccc(NC(=O)CN(C)C(=O)c2cccc3ccccc23)cc1OCC the Potency was inconclusive: 50.1 µM [inhibitor, partial curve, poor fit]. In the case of COc1cc(C2NC(=S)NC(C)=C2C(=O)c2ccccc2)ccc1O (stereo unspecified), the Potency is reported as inconclusive: 56.2 µM [inhibitor, partial curve, poor fit]. In the case of COCCN1C(=O)C(=O)/C(=C(/O)c2ccc(S(=O)(=O)N3CCOCC3)cc2)C1c1cccc(O)c1 (stereo unspecified), the Potency is reported as inconclusive: 7.94 µM [inhibitor, full curve, poor fit]. With COc1ccccc1N1CCN(Cc2cc(=O)oc3ccc(Cl)cc23)CC1 the Potency was inconclusive: 39.8 µM [inhibitor, partial curve]. With O=C(Oc1ccccc1N1C(=O)C2CCCCC2C1=O)c1ccccc1F (stereo unspecified) the Potency was “inactive”. In the case of C/C(=N\NC(=O)c1ccccc1O)c1cccc(NC(=O)c2ccccc2)c1, the Potency is reported as “inactive”. In the case of O=C1CS(=O)(=O)C2(C(=O)N(Cc3ccccc3)c3ccccc32)N1c1ccc(F)c(Cl)c1 (stereo unspecified), the Potency is reported as “inactive”. For Cn1c(=O)n(C)c2cc(SCc3ccco3)c(NC(=O)c3ccccc3)cc21, the Potency was inconclusive: 50.1 µM [inhibitor, partial curve, poor fit]. For N#Cc1c(NC(=O)CN2CCCCC2)sc2c1CCC2, the Potency was inconclusive: 1.41 µM [inhibitor, full curve, poor fit]. In the case of O=C(CN1C(=O)CNC1=O)NCc1cccnc1Oc1ccccc1F, the Potency is reported as “inactive”. In the case of CC(C)n1c(SCC(N)=O)nc2c1c(=O)[nH]c(=O)n2C, the Potency is reported as inconclusive: 100 µM [inhibitor, single point]. For CCn1c(CSc2nc3ccccc3s2)nc2ccccc21, the Potency was “inactive”. With O=C1CCc2cc(NS(=O)(=O)c3ccccc3)cc3c2N1CCC3 the Potency was inconclusive: 50.1 µM [inhibitor, partial curve, poor fit]. For O=C(Nc1ccc(Cl)cc1)NC1CCCCC1Cc1ccco1 (stereo unspecified), the Potency was inconclusive: 5.01 µM [inhibitor, full curve, poor fit]. CCOC(=O)C1=CCC(c2ccco2)N(S(=O)(=O)c2ccc(C)cc2)C1 (stereo unspecified) was tested, and the Potency was inconclusive: 39.8 µM [inhibitor, partial curve, poor fit]. With Cn1c(=O)c(-c2ccccc2)nc2cncnc21 the Potency was inconclusive: 50.1 µM [inhibitor, partial curve, poor fit]. With O=C(NC1CCCCC1)[C@H]1O[C@H](CCN2CCN(c3ccccn3)CC2)CC[C@@H]1O the Potency was “inactive”. For COC(=O)C1=C(C)N(Cc2cccnc2)C(=O)/C1=C\c1sccc1C, the Potency was “inactive”. With CCN(CC)c1nc(C=Cc2ccc(N(C)C)cc2)c2nccnc2n1 the Potency was inconclusive: 79.4 µM [inhibitor, partial curve, poor fit]. Cc1ccc(NNC(=O)c2c(C)noc2C)cc1Cl was tested, and the Potency was inconclusive: 28.2 µM [inhibitor, partial curve, poor fit]. For COc1ccc(Oc2ncc3nc(C)c(=O)n(Cc4ccc(F)cc4)c3n2)cc1, the Potency was inconclusive: 79.4 µM [inhibitor, single point]. In the case of O=C(NCCNC(=O)c1cc2ccccc2[nH]1)C(=O)Nc1ccccc1, the Potency is reported as inconclusive: 100 µM [inhibitor, single point]. With CCCCCCCCCC1NC(C(=O)O)Cc2c1[nH]c1ccccc21 (stereo unspecified) the Potency was inconclusive: 158 µM [inhibitor, partial curve, poor fit]. Cc1cccc(C(C)C)c1NC(=O)c1cnc2ccccc2n1 was tested, and the Potency was inconclusive: 100 µM [inhibitor, single point]. For COc1ccc(-c2nnc3ccc(SCc4ccco4)nn23)cc1, the Potency was “inactive”.
